These are yes or no findings as the source states them, for the method shown.

This assay addresses Arch domain of human XPD (245-439) (human) (UniProt P18074). The experiment in a line: crystal structure; human XPD Arch (245-439) / MAT1 (66-141) complex, co-expressed and co-purified; hanging drop, 20 °C, 100 mM Tris-HCl pH 8.5, 25% w/v PEG8000; 2.07 Å, two heterodimers in the asymmetric unit; both purified.

B1: Arch domain of human XPD (245-439) (domain or fragment, UniProt P18074 245-439)
chain: DSMSVNLTRRTLDRCQGNLETLQKTVLRIKETDEQRLRDEYRRLVEGLREASAARETDAHLANPVLPDEVLQEAVPGSIRTAEHFLGFLRRLLEYVKWRLRVQHVVQESPPAFLSGLAQRVCIQRKPLRFCAERLRSLLHTLEITDLADFSPLTLLANFATLVSTYAKGFTIIIEPFDDRTPTIANPILHFSCMD
Regarding B1, the binding entry was “no binding”.
